In assay [1] the target is T1, ΔPET-GFP (human) (UniProt Q9UGI8).
T1 sequence: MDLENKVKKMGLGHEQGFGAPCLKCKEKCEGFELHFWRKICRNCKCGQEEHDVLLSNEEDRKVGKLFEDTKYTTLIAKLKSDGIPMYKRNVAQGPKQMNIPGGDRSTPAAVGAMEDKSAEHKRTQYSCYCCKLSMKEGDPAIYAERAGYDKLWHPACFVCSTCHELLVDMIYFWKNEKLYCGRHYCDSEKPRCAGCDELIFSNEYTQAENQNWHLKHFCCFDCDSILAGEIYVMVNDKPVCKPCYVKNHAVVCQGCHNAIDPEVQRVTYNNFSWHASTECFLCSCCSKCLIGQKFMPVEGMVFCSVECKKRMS
Kind of assay: affinity purification with mass spectrometry; complexes affinity purified with a GFP-nanobody from lysates of HeLa cells expressing GFP-fused testin variants as bait; tryptic digests; PRIDE PXD005058.

The target of assay [2] is LIM1-3-GFP (human). Described as above.

Results are given in words; binding and its absence hold for the method and conditions named. In cells and extracts the contact can be indirect. A yes stands for co-enrichment or nearness to the bait. Other partners may have been found. For some assays here: Tags and fused reporters may be left off the sequences shown.

Data on one molecule can be found in paper PMC5436826, “The PET and LIM1-2 domains of testin contribute to intramolecular and homodimeric interactions” (PLoS ONE, 2017).

B1: untagged recombinant full length (FL) testin (natural protein, human, UniProt Q9UGI8-1 1-421, looked up)
chain: MDLENKVKKMGLGHEQGFGAPCLKCKEKCEGFELHFWRKICRNCKCGQEEHDVLLSNEEDRKVGKLFEDTKYTTLIAKLKSDGIPMYKRNVMILTNPVAAKKNVSINTVTYEWAPPVQNQALARQYMQMLPKEKQPVAGSEGAQYRKKQLAKQLPAHDQDPSKCHELSPREVKEMEQFVKKYKSEALGVGDVKLPCEMDAQGPKQMNIPGGDRSTPAAVGAMEDKSAEHKRTQYSCYCCKLSMKEGDPAIYAERAGYDKLWHPACFVCSTCHELLVDMIYFWKNEKLYCGRHYCDSEKPRCAGCDELIFSNEYTQAENQNWHLKHFCCFDCDSILAGEIYVMVNDKPVCKPCYVKNHAVVCQGCHNAIDPEVQRVTYNNFSWHASTECFLCSCCSKCLIGQKFMPVEGMVFCSVECKKRMS
notes: testin, human, full length protein (residues 1-421), isoform 1 NP_056456.1; From pGEX-2TK; thrombin site between GST and FL; By SEC it is in a monomer-dimer equilibrium; also called non-tagged recombinant FL; source: E. coli BL21(DE3) pLYSstar, purified on glutathione sepharose as GST-FL, GST removed with thrombin
For B1, the binding result in assay [1] and in assay [2] was “binds” in each case.
